Drawing on patent US20240228562A1, “NOVEL LIPOCALIN MUTEINS SPECIFIC FOR CONNECTIVE TISSUE GROWTH FACTOR (CTGF)” (PIERIS PHARMACEUTICALS GMBH, priority 2021, published 2024), this text covers binding for 17 molecules.

Protein sequences, listed by entry. Tags and fused reporters are not part of them. Lines headed by an entry give the natural chain unless they say otherwise; changes in a name come on top. Chains listed by the source or under a name are the forms on record and can include a tag or linker. Residues count along the entry.
UniProt P29279, residues 27-349: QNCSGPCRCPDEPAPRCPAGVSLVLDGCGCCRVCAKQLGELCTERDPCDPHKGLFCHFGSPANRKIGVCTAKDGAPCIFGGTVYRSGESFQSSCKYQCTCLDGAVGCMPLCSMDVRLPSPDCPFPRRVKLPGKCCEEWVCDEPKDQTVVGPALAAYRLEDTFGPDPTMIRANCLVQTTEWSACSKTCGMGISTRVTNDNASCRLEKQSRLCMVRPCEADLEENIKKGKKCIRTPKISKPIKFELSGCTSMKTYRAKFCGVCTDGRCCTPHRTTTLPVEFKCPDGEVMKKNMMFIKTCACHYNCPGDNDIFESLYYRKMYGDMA
cynomolgus CTGF (I7G525, form named): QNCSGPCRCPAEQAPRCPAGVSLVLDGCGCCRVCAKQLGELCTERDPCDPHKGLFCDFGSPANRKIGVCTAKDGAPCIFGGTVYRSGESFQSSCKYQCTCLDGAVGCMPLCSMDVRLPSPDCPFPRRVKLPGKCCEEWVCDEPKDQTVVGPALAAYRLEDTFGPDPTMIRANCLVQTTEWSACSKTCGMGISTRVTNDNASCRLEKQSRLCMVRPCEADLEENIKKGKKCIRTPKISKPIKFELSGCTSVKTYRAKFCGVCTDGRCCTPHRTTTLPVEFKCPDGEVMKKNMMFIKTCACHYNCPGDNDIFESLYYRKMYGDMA
UniProt P29268, residues 26-348: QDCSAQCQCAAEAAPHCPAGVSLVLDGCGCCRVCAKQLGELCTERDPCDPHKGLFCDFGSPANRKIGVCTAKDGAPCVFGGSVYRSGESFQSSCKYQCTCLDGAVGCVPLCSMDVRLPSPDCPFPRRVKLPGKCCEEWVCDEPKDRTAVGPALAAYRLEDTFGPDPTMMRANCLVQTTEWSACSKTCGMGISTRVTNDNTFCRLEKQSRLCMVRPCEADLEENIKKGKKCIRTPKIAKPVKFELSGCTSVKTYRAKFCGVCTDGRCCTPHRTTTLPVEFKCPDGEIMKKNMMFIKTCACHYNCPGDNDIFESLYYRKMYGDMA

Results are given in words; binding and its absence hold for the method and conditions named. Some results given as binding are weak or reduced against the parent protein; the word gives no strength. For part of these data: Where a sequence is shown, tags or fusion partners need not be part of it.

Experiment [1] concerns the target human CTGF (construct not stated) (human) (UniProt P29279). The experiment is described as follows: ELISA, coated human CTGF. For orientation: ELISA stands for enzyme-linked immunosorbent assay.
The target in experiment [2] is cynomolgus CTGF (cynomolgus) (UniProt I7G525). Briefly: SPR (Biacore); B = binding without determination of kinetics constants.
Experiment [3] deals with mouse CTGF (Abbexa) (mouse) (UniProt P29268). The experiment is described as above.

B1: fusion protein of SEQ ID NO: 74 (designed binder, not shown: small tags and cut ends)
chain: QDSTSDLIPAPPLSKVPLQQNFQDNQFQGKWYVVGLAGNAILREDKQPAKMFATIYELKEDKSYDVTSVRFEAKSCKYTIKTFVPGSQPGEFTAGYIKSAPGQTSTLVRVVSTNYNQHAMVFFKHVTQNREIFVITLYGRTKELTSELKENFIRFSKSLGLPENHIVFPVPIDQCIDGGGGGSGGGGSGGGGSQDSTSDLIPAPPLSKVPLQQNFQDNQFQGKWYVVGWAGNVKLREDKQPQKMSATIYELKEDKSYDVTEVVFEQKKCHYIIKTFVPGSQPGEFTAGDIKSPPGYTSSLVRVVSTNYNQHAMVFFKKVSQNREFFWITLYGRTKELTSELKENFIRFSKSLGLPENHIVFPVPIDQCIDG
Turning to B1, the binding entry in experiment [1] was “binds”.

B2: fusion protein of SEQ ID NO: 76 (designed binder, not shown: small tags and cut ends)
chain: QDSTSDLIPAPPLSKVPLQQNFQDNQFQGKWYVVGLAGNAILREDKQPAKMFATIYELKEDKSYDVTSVRFEAKSCKYTIKTFVPGSQPGEFTAGYIKSAPGQTSTLVRVVSTNYNQHAMVFFKHVTQNREIFVITLYGRTKELTSELKENFIRFSKSLGLPENHIVFPVPIDQCIDGGGGGSGGGGSGGGGSQDSTSDLIPAPPLSKVPLQQNFQDNQFQGKWYVVGWAGNVKLREDKQPLKMSATIYELKEDKSYDVTEVVFEQKKCHYIIKTFVPGSQPGEFTAGDIKSPPGYTSSLVRVVSTNYNQHAMVFFKKVSQNREFFWITLYGRTKELTSELKENFIRFSKSLGLPENHIVFPVPIDQCIDG
Turning to B2, the binding entry in experiment [1] is recorded as “binds”.

B3: lipocalin mutein of SEQ ID NO: 29 (designed binder)
chain: QDSTSDLIPAPPLSKVPLQQNFQDNQFHGKWYVVGWAGNIKLREDKDPFKMSATIYELKEDKSYNVTEVVFEQKKCHYIIKTFVPGSQPGEFTLGDIKSPPGETSSLVRVVSTNYNQHAMVFFKKVFQNREFFWITLYGRTKELTSELKENFIRFSKSLGLPENHIVFPVPIDQCIDGSAWSHPQFEK
Regarding B3, the binding entry in experiment [1] is “binds”.

B4: lipocalin mutein of SEQ ID NO: 23 (designed binder)
chain: QDSTSDLIPAPPLSKVPLQQNFQDNQFQGKWYVVGVAGNAILRPDKQPAKMFATIYELKEDKSYDVTSVRFEAKSCKYTIKTFVPGSQPGEFTSGQIKSAPGQTSTLVRVVSTNYNQHAMVFFKHVSQNREIFVITLYGRTKELTSELKENFIRFSKSLGLPENHIVFPVPIDQCIDG
On to B4, for which the binding entry in experiment [1], in experiment [2] and in experiment [3] was “binds” in each case.

B5: lipocalin mutein of SEQ ID NO: 13 (designed binder, not shown: small tags and cut ends)
chain: QDSTSDLIPAPPLSKVPLQQNFQDNQFQGKWYVVGLAGNAILREDKYPAKMFATIYELKEDKSYDVTSVRFENKSCVYTSKTFVPGSQPGEFTTGNIKSAPGQTSTLVRVVSTNYNQHAMVFFKHVSQNREFFVITLYGRTKELTSELKENFIRFSKSLGLPENHIVFPVPIDQCIDG
On to B5, for which the binding entry in experiment [3] is listed as “binds”.

B6: lipocalin mutein of SEQ ID NO: 18 (designed binder, not shown: small tags and cut ends)
chain: QDSTSDLIPAPPLSKVPLQQNFQDNQFQGKWYVVGIAGNAILRDDKYPAKMFATIYELKEDKSYDVTSVRFENKSCIYTIKTFVPGSQPGEFTHGNIKSHPGQTSTLVRVVSTNYNQHAMVFFKHVSQNREIFVITLYGRTKELTSELKENFIRFSKSLGLPENHIVFPVPIDQCIDG
With B6, the binding result in experiment [3] is “binds”.

B7: lipocalin mutein of SEQ ID NO: 20 (designed binder, not shown: small tags and cut ends)
chain: QDSTSDLIPAPPLSKVPLQQNFQDNQFQGKWYVVGLAGNAILREDKQPAKMFATIYELKEDKSYDVTSVRFEAKSCSYTIKTFVPGSQPGEFTAGNIKSAPGQTSTLVRVVSTNYNQHAMVFAKAVQLNREHFFITLYGRTKELTSELKENFIRFSKSLGLPENHIVFPVPIDQCIDG
Regarding B7, the binding entry in experiment [3] was “binds”.

B8: lipocalin mutein of SEQ ID NO: 10 (designed binder, not shown: small tags and cut ends)
chain: QDSTSDLIPAPPLSKVPLQQNFQDNQFQGKWYVVGLAGNAILREDKQPAKMFATIYELKEDKSYDVTSVRFEAKSCSYTIKTFVPGSQPGEFTAGNIKSAPGQTSTLVRVVSTNYNQHAMVFWKSVAGTRESFNIALYGRTKELTSELKENFIRFSKSLGLPENHIVFPVPIDQCIDG
As to B8, the binding entry in experiment [3] is “binds”.

B9: lipocalin mutein of SEQ ID NO: 17 (designed binder, not shown: small tags and cut ends)
chain: QDSTSDLIPAPPLSKVPLQQNFQDNQFQGKWYVVGLAGNAILRTDKQPAKMFATIYELKEDKSYDVTSVRFEAKSCVYTSKTFVPGSQPGEFTAGNIKSAPGQTSTLVRVVSTNYNQHAMVFFKHVSQNREFFVITLYGRTKELTSELKENFIRFSKSLGLPENHIVFPVPIDQCIDG
As for B9, in experiment [3], the binding entry is listed as “binds”.

B10: lipocalin mutein of SEQ ID NO: 22 (designed binder, not shown: small tags and cut ends)
chain: QDSTSDLIPAPPLSKVPLQQNFQDNQFQGKWYVVGIAGNAILRVDKQPAKMFATIYELKEDKSYDVTSVRFEAKSCVYTIKTFVPGSQPGEFTAGNIKSAPGQTSTLVRVVSTNYNQHAMVFFKHVSQNREIFVITLYGRTKELTSELKENFIRFSKSLGLPENHIVFPVPIDQCIDG
Regarding B10, in experiment [3], the binding entry is “binds”.

B11: lipocalin mutein of SEQ ID NO: 15 (designed binder, not shown: small tags and cut ends)
chain: QDSTSDLIPAPPLSKVPLQQNFQDNQFQGKWYVVGLAGNAILREDKQPAKMFATIYELKEDKSYDVTSVRFEAKSCKYTIKTFVPGSQPGEFTAGYIKSAPGQTSTLVRVVSTNYNQHAMVFFKHVTQNREIFVITLYGRTKELTSELKENFIRFSKSLGLPENHIVFPVPIDQCIDG
Turning to B11, the binding result in experiment [1] is “binds”.

B12: lipocalin mutein of SEQ ID NO: 7 (designed binder)
chain: QDSTSDLIPAPPLSKVPLQQNFQDNQFHGKWYVVGLAGNYGLRTDKRPSKMFATIYELKEDKSYDVTSVRFEQERCHYTIRTFVPGSQPGEFTTGSIKSRPGQTSSLVRVVSTNYNQHAMVFFKSVIQNREYFAITLYGRTKELTSELKENFIRFSKSLGLPENHIVFPVPIDQCIDGSAWSHPQFEK
Consider B12, for which the binding entry in experiment [1] and in experiment [3] was “binds” in each case.

B13: lipocalin mutein of SEQ ID NO: 3 (designed binder)
chain: QDSTSDLIPAPPLSKVPLQQNFQDNQFHGKWYVVGRAGNNRLREDKDPPKMWATIYELKEDKSYNVTHVHFMTKKCRYIIDTFVPGSQPGEFTLGAIKSGPGMTSPLVRIVSTNYNQHAMVFFKWVNQNREWFTITLYGRTKELTSELKENFIRFSKSLGLPENHIVFPVPIDQCIDGSAWSHPQFEK
Turning to B13, the binding entry in experiment [1] and in experiment [3] was “binds” in each case.

B14: lipocalin mutein of SEQ ID NO: 9 (designed binder)
chain: QDSTSDLIPAPPLSKVPLQQNFQDNQFHGKWYVVGLAGNKILRIDKQPAKMFATIYELKEDKSYDVTSVRFEARSCSYTIKTFVPGSQPGEFTAGNIKSAPGQTSTLVRVVSTNYNQHAMVFFKHVSQNRETFVITLYGRTKELTSELKENFIRFSKSLGLPENHIVFPVPIDQCIDGSAWSHPQFEK
Regarding B14, in experiment [1], the binding result was “binds”.

B15: lipocalin mutein of SEQ ID NO: 6 (designed binder, not shown: small tags and cut ends)
chain: QDSTSDLIPAPPLSKVPLQQNFQDNQFQGKWYVVGRAGNNQLREDKSPPKMWATIYELKEDKSYDVTHVHFSTKKCRYIIDTFVPGSQPGEFTAGAIKSGPGLTSPLVRVVSTNYNQHAMVFFKWVTQNREWFTITLYGRTKELTSELKENFIRFSKSLGLPENHIVFPVPIDQCIDG
As for B15, the binding result in experiment [3] was “binds”.

B16: lipocalin mutein of SEQ ID NO: 25 (designed binder)
chain: QDSTSDLIPAPPLSKVPLQQNFQDNQFHGKWYVVGMAGNFRLREDKDPSKMGATIYELKEDKSYNVTQVQFDDKKCLYVIETFVPGSQPGEFTLGAIKSFPGFTSQLVRVVSTNYNQHAMVFFKKVYQNREVFWITLYGRTKELTSELKENFIRFSKSLGLPENHIVFPVPIDQCIDGSAWSHPQFEK
B16: the binding result in experiment [1] is recorded as “binds”.

B17: lipocalin mutein of SEQ ID NO: 5 (designed binder, not shown: small tags and cut ends)
chain: QDSTSDLIPAPPLSKVPLQQNFQDNQFQGKWYVVGKAGNALREDKEPPKMWATIYELKEDKSYDVTHVHFLTKKCKYLIDTFVPGSQPGEFTIGAIKSGPGLTSPLVRVVSTNYNQHAMVFFKWVSQNREWFTITLYGRTKELTSELKENFIRFSKSLGLPENHIVFPVPIDQCIDG
As to B17, the binding result in experiment [3] is “binds”.
